“And” between values parts separate entries of the source, which are not always exact repeats. Equal values may be shown once. This is one part of the list. The main result of the screen is listed elsewhere. These columns were measured beside it and carry no call. For part of these data: The list favours compounds with an active or inconclusive main result. For part of these data: Potencies come from curve fits of mixed quality, noted in brackets.
What was measured:
[1] = Validation of Assay for Modulators of Lamin A Splicing (AID 1459); conditions: Lamin A splicing dual RFP/GFP fluorescence reporter, ratio
Outline: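 S3 HeLa stably expressing lamin A-EGFP splicing minigene and DsRed2, 600 cells/well in Opti-MEM with 2% FBS, treated 48 h at 37C; laser-scanning cytometry gives GFP/RFP total intensity ratio; ancitabine positive control, 0.5% DMSO vehicle.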

The chains behind the UniProt entries cited, without tags or fusion partners. Where a name states a change or a piece, a line headed by the entry shows the natural chain unless it says otherwise.
UniProt P50135: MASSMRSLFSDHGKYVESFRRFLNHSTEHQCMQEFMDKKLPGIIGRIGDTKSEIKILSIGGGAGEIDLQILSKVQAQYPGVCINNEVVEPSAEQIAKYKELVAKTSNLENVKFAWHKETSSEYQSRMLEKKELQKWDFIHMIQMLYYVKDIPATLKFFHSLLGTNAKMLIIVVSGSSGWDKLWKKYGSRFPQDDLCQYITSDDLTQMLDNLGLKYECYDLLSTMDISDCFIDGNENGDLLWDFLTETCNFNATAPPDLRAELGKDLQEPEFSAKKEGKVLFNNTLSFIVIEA
UniProt P11086: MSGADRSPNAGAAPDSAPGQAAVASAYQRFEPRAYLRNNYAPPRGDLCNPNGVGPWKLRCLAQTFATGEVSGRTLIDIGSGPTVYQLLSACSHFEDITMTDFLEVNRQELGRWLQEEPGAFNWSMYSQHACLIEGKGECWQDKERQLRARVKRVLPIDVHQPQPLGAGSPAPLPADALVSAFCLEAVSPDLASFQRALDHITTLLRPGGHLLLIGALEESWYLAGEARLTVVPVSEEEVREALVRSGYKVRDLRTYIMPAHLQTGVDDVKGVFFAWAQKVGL

[2] = qHTS Assay for Modulators of Human Peripheral Myelin Protein 22 (PMP22) Expression/Activity (AID 1967); conditions: Cell-based PMP22 reporter, dual-color luciferase ratio
Outline: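 Mouse MSC80 Schwann cells carrying Pmp22 promoter–green click beetle luciferase plus EF-alpha–red luciferase control, dosed 24 h at 37 °C. Dual-filter luminescence, overlap-corrected; %Activity from green/red ratio normalised to untreated cells, concentration-response curves fitted.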

[3] = Nrf2 qHTS screen for inhibitors: Validation (AID 493153); conditions: A549 ARE-Fluc reporter, 18-24 h; AC50: CellTiter-Fluor fluorescence read, measured here: cytotoxicity CellTiter-Fluor AC50; viability change: measured here: cytotoxicity max response
Outline: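 In this counterscreened reporter format, each well gives two signals: CellTiter-Fluor fluorescence for cytotoxicity and ARE-luciferase luminescence for Nrf2 function. A549 ARE_Fluc cells in 5% FBS OPTI-MEM were exposed to compound titrations for 18-24 h.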

[4] = qHTS Validation Assay to Find Inhibitors of Chronic Active B-Cell Receptor Signaling (AID 485345); conditions: ABC-DLBCL cells, chronic BCR signaling reporter
Outline: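 Read-out: ratio of filter-corrected green (IkappaBalpha fusion) to red (native) luciferase signal in doxycycline-induced TMD8 cells after 4 h at 37C. Titration spanned 46 uM–3 nM; Data were normalised to basal cells and 10 uM MG-132 wells.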

[5] = qHTS assay for small molecule antagonists of glucocorticoid receptor signaling (AID 588533); conditions: HeLa MMTV-bla, GRE beta-lactamase ratio, antagonist mode, 18 h; measured here: W530 channel AC50
[6] = qHTS assay for small molecule antagonists of peroxisome proliferator-activated receptor delta signaling (AID 588535); conditions: HEK293T PPARd-UAS-bla, beta-lactamase FRET ratio, 18 h; 460 nm channel;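 note: cells co-treated with a PPAR-delta agonist as stimulator during compound exposure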
Outline: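 Antagonist-mode qHTS using GeneBLAzer PPAR-delta-UAS-bla HEK293T cells; compound exposure 18 hrs at 37 C over a titration. Ratiometric CCF4 fluorescence at 460/530 nm; concentration-response points fitted to the Hill equation.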

[7] = qHTS assay for small molecule antagonists of vitamin D receptor signaling (AID 588541); conditions: HEK293T VDR-UAS-bla, beta-lactamase ratio, antagonist mode; measured here: W460 blue channel (cell viability)
[8] = qHTS assay for small molecule agonists of retinoid X receptor alpha signaling (AID 588544); conditions: HEK293T RXRa-UAS-bla, beta-lactamase reporter, 18 h; 530 nm emission
[9] = qHTS assay for small molecule antagonists of retinoid X receptor alpha signaling (AID 588546); conditions: HEK293T RXRa-UAS-bla, beta-lactamase ratio, antagonist mode; measured here: W530 green channel, cytotoxicity proxy;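 note: cells stimulated with 9-cis-retinoic acid as agonist; % is set by controls: 0 for no effect and ±100 for the full control effect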
Outline: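 Beta-lactamase reporter inhibition, read as CCF4 fluorescence ratio (ex 405, em 460/530 nm) after 2 h at RT. HEK293T UAS-bla cells, 2500/well, were stimulated with 9-cis-RA at 500 or 100 nM final alongside test compound for 18 h at 37 C.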

[10] = target: Histamine N-methyltransferase (Homo sapiens) (UniProt P50135); experiment: Confirmatory Screen for Target Class Profiling of Small Molecule Inhibitors of Methyltransferases (AID 1745852); conditions: MTase-Glo luminescence, SAH detection, recombinant enzyme; measured here: HNMT inhibition potency
[11] = target: Phenylethanolamine N-methyltransferase (Homo sapiens) (UniProt P11086); experiment: as above; conditions: MTase-Glo luminescence, SAH detection, recombinant enzyme; measured here: PNMT inhibition potency
[12] = S16 Schwann cell PMP22 intronic element beta-lactamase assay (AID 624044); conditions: S16 rat Schwann cells, PMP22 element beta-lactamase FRET, 24 h
Outline: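 Beta-lactamase reporter under a PMP22 intronic regulatory element in stable S16 rat Schwann cells; 24 h compound exposure. 460 nm blue signal normalized between DMSO (0%) and potassium clavulanate, with 535 nm FRET tracking viability; curves classed by r2 and response.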

[13] = qHTS drug screen for cell cycle checkpoint inhibitors in PARPi-resistant BRCA-mutant ovarian cancer cell lines. (AID 1963452); conditions: PEO1/OlaR viability, CellTiter-Glo luminescence, 96 h
Outline: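 PEO1, PEO4 and PEO1/OlaR ovarian cancer cells, 600 per well, exposed 96 h at 37C to a dilution series. Viability read by CellTiter-Glo luminescence, normalized to DMSO and empty wells; activity summarized as Z-AUC.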

[14] = qHTS for identification of novel therapeutic agents for treatment of microphthalmiaassociated transcription factor (MiT) renal cell carcinoma (RCC) (AID 1963991); conditions: CellTiter-Glo, 48 h; for z-score: stronger effect = lower value;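 for z-score: curves scaled with 100% = DMSO viability and 0% = empty wells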
Outline: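 UOK109/UOK124/UOK145 (TFE3 fusions, three partners); 500 cells/well; MIPE v4.0, 1912 cpds, 11 conc.; 48 h, 37 C; CellTiter-Glo, 15 min RT; lum. Norm.: DMSO 100%, empty 0%.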

[15] = measured here: red reporter channel AC50, EF-alpha promoter control reporter in MSC80 mouse Schwann cells
[16] = measured here: green reporter channel AC50, mouse Pmp22 promoter in mouse Schwann cells
[17] = measured here: CBG/CBR ratio read-out
[18] = measured here: CBR control luciferase (viability counter)

In the case of `O=C(O)CCCC[C@@H]1CCSS1`, the AC50 ([1]; measured here: GFP channel) is reported as 35.5 µM [falling, single point], the AC50 ([1]; measured here: RFP channel) is reported as 35.5 µM [falling, single point] and the AC50 [2, 15] is reported as 33.8 µM [rising, single point].

For `CCCCOC(=O)NS(=O)(=O)c1sc(CC(C)C)cc1-c1ccc(Cn2c(CC)nc3c(C)cc(C)nc32)cc1`, the AC50 ([1]; measured here: GFP channel) was 35.5 µM [rising, single point], the AC50 ([1]; measured here: RFP channel) was 22.4 µM [falling, partial curve] and the AC50 [2, 16] was 33.8 µM [falling, full curve]. For the same compound, the AC50 [2, 15] was 30.1 µM [falling, full curve], the AC50 [3] was 14.6 µM [falling, partial curve] and the viability change [3] was -31.9%.

With `CNCCC(Oc1ccccc1C)c1ccccc1` (stereo unspecified) the AC50 ([1]; measured here: GFP channel) was 35.5 µM [falling, single point], the AC50 ([1]; measured here: RFP channel) was 35.5 µM [falling, single point] and the AC50 [2, 16] was 84.9 µM [falling, single point]. For the same compound, the AC50 [2, 15] was 84.9 µM [falling, single point].

In the case of `CCN1/C(=C/C(C)=O)Sc2ccc(OC)cc21`, the AC50 ([1]; measured here: GFP channel) is reported as 14.1 µM [rising, partial curve, poor fit], the AC50 ([1]; measured here: RFP channel) is reported as 12.6 µM [rising, single point] and the AC50 [2, 15] is reported as 67.5 µM [falling, partial curve]. The AC50 [4, 17] was 16.4 µM [falling, single point].

In the case of `CC[C@@H]1Cc2cc(O)ccc2C2=C1c1ccc(O)cc1C[C@H]2CC`, the AC50 ([1]; measured here: GFP channel) is reported as 12.6 µM [falling, single point], the AC50 ([1]; measured here: RFP channel) is reported as 20 µM [falling, single point] and the AC50 [2, 16] is reported as 53.6 µM [falling, partial curve]. For the same compound, the AC50 [2, 15] was 37.9 µM [falling, full curve], the AC50 [4, 17] was 18.4 µM [falling, partial curve] and the AC50 [4, 18] was 29.1 µM [falling, single point]. For the same compound, the AC50 [5] was 50.1 µM [falling, single point], the max response [6] was -49.8% and the AC50 [7] was 39.8 µM [falling, partial curve]. The max response [8] was -59.4%, the max response [9] was -52.8% and the IC50 [10] was 27.3 µM [falling, single point]. The IC50 [11] was 24.3 µM [falling, single point].

For `O=c1cc(-c2ccccc2)[nH]c2nc(Cl)ccc12`, the AC50 ([1]; measured here: GFP channel) was 5.62 µM [falling, full curve, poor fit], the AC50 ([1]; measured here: RFP channel) was 5.01 µM [falling, full curve, poor fit] and the AC50 [2, 16] was 37.9 µM [falling, partial curve]. The AC50 [2, 15] was 1.9 µM [falling, full curve].

In the case of `COCC(=O)O[C@]1(CCN(C)CCCc2nc3ccccc3[nH]2)CCc2cc(F)ccc2[C@@H]1C(C)C`, the AC50 ([1]; measured here: GFP channel) is reported as 22.4 µM [falling, partial curve], the AC50 ([1]; measured here: RFP channel) is reported as 25.1 µM [falling, single point] and the AC50 [2, 16] is reported as 21.3 µM [falling, full curve]. For the same compound, the AC50 [2, 15] was 19 µM [falling, full curve, poor fit], the AC50 [4, 17] was 18.4 µM [falling, partial curve] and the AC50 [4, 18] was 29.1 µM [falling, single point]. For the same compound, the AC50 [3] was 32.6 µM [falling, partial curve, poor fit], the viability change [3] was -21.9% and the AC50 ([12]; measured here: 460 nm blue channel) was 25.1 µM [falling, partial curve]. The AC50 ([12]; measured here: 530 nm viability channel) was 28.2 µM [rising, single point].

For `NC(N)=NCc1cccc(I)c1`, the AC50 ([1]; measured here: GFP channel) was 35.5 µM [falling, single point], the AC50 ([1]; measured here: RFP channel) was 35.5 µM [falling, single point] and the AC50 [2, 15] was 30.1 µM [falling, partial curve, poor fit]. For the same compound, the AC50 [4, 18] was 14.6 µM [falling, single point].

With `CN(C)c1ccc(/C=C2\C(=O)Nc3ccccc32)cc1` the AC50 ([1]; measured here: GFP channel) was 35.5 µM [falling, single point], the AC50 ([1]; measured here: RFP channel) was 11.2 µM [falling, partial curve, poor fit] and the AC50 [2, 15] was 53.6 µM [falling, partial curve, poor fit]. The AC50 [4, 17] was 4.11 µM [falling, single point], the AC50 [4, 18] was 14.6 µM [falling, partial curve] and the AC50 [3] was 14.6 µM [falling, partial curve, poor fit]. It also gave a viability change [3] of -23.6%.

For `Cn1cnc([N+](=O)[O-])c1Sc1ncnc2nc[nH]c12`, the AC50 ([1]; measured here: GFP channel) was 11.2 µM [rising, single point], the AC50 ([1]; measured here: RFP channel) was 11.2 µM [rising, single point] and the max response [6] was 39.4% and 115%. The max response [8] was 4.89% and 28.1%, the AC50 ([13]; measured here: PEO1 parental viability) was 0.692 µM [falling, full curve] and the AC50 ([13]; measured here: PEO4 viability) was 0.616 µM [falling, full curve]. The z-score ([14]; TFE3-RCC UOK109 viability, measured here: UOK109 Z-AUC) was -0.606, the z-score ([14]; TFE3-RCC viability, measured here: UOK124 Z-AUC) was -1.1 and the AC50 ([14]; TFE3-RCC viability, measured here: UOK124 cell viability) was 0.833 µM [falling, full curve]. For the same compound, the z-score ([14]; TFE3-RCC viability, measured here: UOK145 Z-AUC) was -0.904 and the AC50 ([14]; TFE3-RCC viability, measured here: UOK145 cell viability) was 5.9 µM [falling, partial curve].

Source: PubChem BioAssay (NCATS)
